PubChem BioAssay AID504804, Drosophila RNAi Screening Center | 2011
Test: 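dsRNAs that improve Kc cell survival under doxorubicin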 (primary screen). Cell system: Drosophila Kc cells. Reagent: long dsRNA against Drosophila genes, 0.5 µg dsRNA per well. Duration: 96 h (48 h knock-down, then 48 h drug). Treatment: doxorubicin 5 µg/ml for 48 h, added 48 h after dsRNA. Read-out: 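Luminescent ATP counts per replicate, not normalised, reflecting viable cells after 48 h dsRNA knock-down followed by 48 h of 5 µg/ml doxorubicin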. Reading the numbers: raw ATP luminescence: higher = more viable cells, protection from doxorubicin. Rule for the call: 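z-score of 2 or more over plate mean in both duplicates, retained only when retests and separate dsRNAs confirm the protection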.
The screen tested about 19,000 reagents; this is an unselected part of those that have a named target and a result. Of all reagents, 47 (0.25%) were called active. 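Signals are raw, not normalised; exact z-scores behind calls not deposited; actives needed confirmation, so some wells reaching 2 SD are inactive.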 The numbers tell different reagents against one gene apart. A plus sign joins genes that one reagent is predicted to hit. Reagent sequences are not shown.

{"gene knocked down": "CG15042", "dsRNA no.": 1, "raw ATP luminescence, replicate 1": 2.77e5, "raw ATP luminescence, replicate 2": 2.61e5, "outcome": "inactive"}
{"gene knocked down": "Or33b", "dsRNA no.": 1, "raw ATP luminescence, replicate 1": 57670, "raw ATP luminescence, replicate 2": 71553, "outcome": "inactive"}
{"gene knocked down": "Rnf146", "dsRNA no.": 1, "raw ATP luminescence, replicate 1": 61083, "raw ATP luminescence, replicate 2": 58150, "outcome": "inactive"}
{"gene knocked down": "CG17199", "dsRNA no.": 1, "raw ATP luminescence, replicate 1": 35230, "raw ATP luminescence, replicate 2": 35290, "outcome": "inactive"}
{"gene knocked down": "CG9536", "dsRNA no.": 1, "raw ATP luminescence, replicate 1": 92527, "raw ATP luminescence, replicate 2": 73210, "outcome": "inactive"}
{"gene knocked down": "AIMP2", "dsRNA no.": 1, "raw ATP luminescence, replicate 1": 46340, "raw ATP luminescence, replicate 2": 22347, "outcome": "inactive"}
{"gene knocked down": "Xport-A + Xport-B", "dsRNA no.": 1, "raw ATP luminescence, replicate 1": 36543, "raw ATP luminescence, replicate 2": 45770, "outcome": "inactive"}
{"gene knocked down": "Scgdelta", "dsRNA no.": 1, "raw ATP luminescence, replicate 1": 67700, "raw ATP luminescence, replicate 2": 57510, "outcome": "inactive"}
{"gene knocked down": "CG1537", "dsRNA no.": 1, "raw ATP luminescence, replicate 1": 4.07e5, "raw ATP luminescence, replicate 2": 3.43e5, "outcome": "inactive"}
{"gene knocked down": "CNMaR", "dsRNA no.": 1, "raw ATP luminescence, replicate 1": 1.12e5, "raw ATP luminescence, replicate 2": 1.06e5, "outcome": "inactive"}
{"gene knocked down": "CNMaR", "dsRNA no.": 2, "SD above plate mean": "at least 3 SD above plate mean", "raw ATP luminescence, replicate 1": 1.27e5, "raw ATP luminescence, replicate 2": 1.62e5, "outcome": "active"}
{"gene knocked down": "meep", "dsRNA no.": 1, "raw ATP luminescence, replicate 1": 1.65e5, "raw ATP luminescence, replicate 2": 1.51e5, "outcome": "inactive"}
{"gene knocked down": "topi", "dsRNA no.": 1, "raw ATP luminescence, replicate 1": 61483, "raw ATP luminescence, replicate 2": 44477, "outcome": "inactive"}
{"gene knocked down": "CG15147", "dsRNA no.": 1, "raw ATP luminescence, replicate 1": 77607, "raw ATP luminescence, replicate 2": 87003, "outcome": "inactive"}
{"gene knocked down": "CG15147", "dsRNA no.": 2, "SD above plate mean": "2 to 3 SD above plate mean", "raw ATP luminescence, replicate 1": 93140, "raw ATP luminescence, replicate 2": 1.21e5, "outcome": "active"}
{"gene knocked down": "Ir7f", "dsRNA no.": 1, "raw ATP luminescence, replicate 1": 50090, "raw ATP luminescence, replicate 2": 43540, "outcome": "inactive"}
{"gene knocked down": "kl-5 (retired record)", "dsRNA no.": 1, "raw ATP luminescence, replicate 1": 3.07e5, "raw ATP luminescence, replicate 2": 2.99e5, "outcome": "inactive"}
{"gene knocked down": "kl-5 (retired record)", "dsRNA no.": 2, "raw ATP luminescence, replicate 1": 2.24e5, "raw ATP luminescence, replicate 2": 1.92e5, "outcome": "inactive"}
{"gene knocked down": "kl-5 (retired record)", "dsRNA no.": 3, "raw ATP luminescence, replicate 1": 2.72e5, "raw ATP luminescence, replicate 2": 2.57e5, "outcome": "inactive"}
{"gene knocked down": "kl-5 (retired record)", "dsRNA no.": 4, "raw ATP luminescence, replicate 1": 2.09e5, "raw ATP luminescence, replicate 2": 2.08e5, "outcome": "inactive"}
{"gene knocked down": "smp-30", "dsRNA no.": 1, "raw ATP luminescence, replicate 1": 1.16e5, "raw ATP luminescence, replicate 2": 78000, "outcome": "inactive"}
{"gene knocked down": "CG10943", "dsRNA no.": 1, "raw ATP luminescence, replicate 1": 91930, "raw ATP luminescence, replicate 2": 82340, "outcome": "inactive"}
{"gene knocked down": "Tgi", "dsRNA no.": 1, "raw ATP luminescence, replicate 1": 77390, "raw ATP luminescence, replicate 2": 61623, "outcome": "inactive"}
{"gene knocked down": "Tgi", "dsRNA no.": 2, "raw ATP luminescence, replicate 1": 66867, "raw ATP luminescence, replicate 2": 58720, "outcome": "inactive"}
{"gene knocked down": "Nelf-A", "dsRNA no.": 1, "raw ATP luminescence, replicate 1": 46523, "raw ATP luminescence, replicate 2": 32127, "outcome": "inactive"}
{"gene knocked down": "uif", "dsRNA no.": 1, "raw ATP luminescence, replicate 1": 2.69e5, "raw ATP luminescence, replicate 2": 3.15e5, "outcome": "inactive"}
{"gene knocked down": "uif", "dsRNA no.": 2, "raw ATP luminescence, replicate 1": 33830, "raw ATP luminescence, replicate 2": 44077, "outcome": "inactive"}
{"gene knocked down": "Chchd3", "dsRNA no.": 1, "raw ATP luminescence, replicate 1": 30060, "raw ATP luminescence, replicate 2": 29160, "outcome": "inactive"}
